Results from the supplement of paper PMC10849652.
This is one part of the list.

By UniProt entry, the sequences of proteins in these tests, tags left out. Where a name states a change or a piece, a line headed by the entry shows the natural chain unless it says otherwise.
UniProt P51531, whole entry, looked up: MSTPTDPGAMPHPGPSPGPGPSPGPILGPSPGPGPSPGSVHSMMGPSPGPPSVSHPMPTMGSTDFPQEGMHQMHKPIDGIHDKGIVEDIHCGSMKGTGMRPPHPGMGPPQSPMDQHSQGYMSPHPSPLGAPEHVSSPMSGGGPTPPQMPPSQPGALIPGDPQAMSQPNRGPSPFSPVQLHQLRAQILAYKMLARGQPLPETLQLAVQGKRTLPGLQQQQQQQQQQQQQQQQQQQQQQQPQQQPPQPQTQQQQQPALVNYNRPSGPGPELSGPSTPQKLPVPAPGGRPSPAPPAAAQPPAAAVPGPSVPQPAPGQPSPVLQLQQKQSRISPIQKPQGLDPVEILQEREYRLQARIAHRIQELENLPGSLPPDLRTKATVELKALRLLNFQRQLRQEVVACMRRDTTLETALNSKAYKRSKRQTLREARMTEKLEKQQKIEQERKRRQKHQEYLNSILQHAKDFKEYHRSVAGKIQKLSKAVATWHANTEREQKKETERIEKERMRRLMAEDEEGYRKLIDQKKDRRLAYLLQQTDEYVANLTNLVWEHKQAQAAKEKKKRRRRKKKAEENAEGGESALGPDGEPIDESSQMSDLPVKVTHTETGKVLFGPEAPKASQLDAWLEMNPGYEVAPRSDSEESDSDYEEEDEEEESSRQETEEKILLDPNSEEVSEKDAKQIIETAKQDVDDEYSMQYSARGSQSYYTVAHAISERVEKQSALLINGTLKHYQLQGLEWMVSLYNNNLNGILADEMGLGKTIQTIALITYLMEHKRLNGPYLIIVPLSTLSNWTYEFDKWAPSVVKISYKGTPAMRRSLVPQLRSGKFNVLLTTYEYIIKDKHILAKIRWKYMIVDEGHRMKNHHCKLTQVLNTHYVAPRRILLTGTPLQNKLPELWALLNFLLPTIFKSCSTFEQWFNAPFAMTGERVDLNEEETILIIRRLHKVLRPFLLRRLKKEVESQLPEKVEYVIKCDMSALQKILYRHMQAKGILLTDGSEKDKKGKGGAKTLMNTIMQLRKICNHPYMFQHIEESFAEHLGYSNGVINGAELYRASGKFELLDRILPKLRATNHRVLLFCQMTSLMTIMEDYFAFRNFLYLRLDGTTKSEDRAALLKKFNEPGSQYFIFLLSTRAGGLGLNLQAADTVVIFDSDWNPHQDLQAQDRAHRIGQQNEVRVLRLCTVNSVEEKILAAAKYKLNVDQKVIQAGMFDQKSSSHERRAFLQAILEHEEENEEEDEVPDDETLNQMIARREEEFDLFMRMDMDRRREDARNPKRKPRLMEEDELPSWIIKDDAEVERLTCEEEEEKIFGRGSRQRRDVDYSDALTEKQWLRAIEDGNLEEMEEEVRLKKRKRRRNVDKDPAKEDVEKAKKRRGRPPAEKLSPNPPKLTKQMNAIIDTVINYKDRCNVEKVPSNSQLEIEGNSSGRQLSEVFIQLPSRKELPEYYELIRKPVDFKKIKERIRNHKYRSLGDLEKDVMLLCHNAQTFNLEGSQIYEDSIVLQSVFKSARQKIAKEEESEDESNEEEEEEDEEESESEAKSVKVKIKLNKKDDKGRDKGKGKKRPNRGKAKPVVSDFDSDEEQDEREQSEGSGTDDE
UniProt Q9H2H9: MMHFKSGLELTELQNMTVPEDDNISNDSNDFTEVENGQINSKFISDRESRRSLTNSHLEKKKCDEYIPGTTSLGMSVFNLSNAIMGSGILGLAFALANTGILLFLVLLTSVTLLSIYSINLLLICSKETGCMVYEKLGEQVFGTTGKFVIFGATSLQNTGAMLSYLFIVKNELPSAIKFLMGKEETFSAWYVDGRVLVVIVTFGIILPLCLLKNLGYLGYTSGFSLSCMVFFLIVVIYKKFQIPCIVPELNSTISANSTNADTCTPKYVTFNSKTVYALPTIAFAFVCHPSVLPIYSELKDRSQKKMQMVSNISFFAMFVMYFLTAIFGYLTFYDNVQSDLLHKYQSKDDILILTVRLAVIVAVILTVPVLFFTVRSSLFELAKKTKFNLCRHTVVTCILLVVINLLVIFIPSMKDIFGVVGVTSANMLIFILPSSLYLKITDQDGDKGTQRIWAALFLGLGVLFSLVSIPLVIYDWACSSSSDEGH
UniProt Q9H2G2: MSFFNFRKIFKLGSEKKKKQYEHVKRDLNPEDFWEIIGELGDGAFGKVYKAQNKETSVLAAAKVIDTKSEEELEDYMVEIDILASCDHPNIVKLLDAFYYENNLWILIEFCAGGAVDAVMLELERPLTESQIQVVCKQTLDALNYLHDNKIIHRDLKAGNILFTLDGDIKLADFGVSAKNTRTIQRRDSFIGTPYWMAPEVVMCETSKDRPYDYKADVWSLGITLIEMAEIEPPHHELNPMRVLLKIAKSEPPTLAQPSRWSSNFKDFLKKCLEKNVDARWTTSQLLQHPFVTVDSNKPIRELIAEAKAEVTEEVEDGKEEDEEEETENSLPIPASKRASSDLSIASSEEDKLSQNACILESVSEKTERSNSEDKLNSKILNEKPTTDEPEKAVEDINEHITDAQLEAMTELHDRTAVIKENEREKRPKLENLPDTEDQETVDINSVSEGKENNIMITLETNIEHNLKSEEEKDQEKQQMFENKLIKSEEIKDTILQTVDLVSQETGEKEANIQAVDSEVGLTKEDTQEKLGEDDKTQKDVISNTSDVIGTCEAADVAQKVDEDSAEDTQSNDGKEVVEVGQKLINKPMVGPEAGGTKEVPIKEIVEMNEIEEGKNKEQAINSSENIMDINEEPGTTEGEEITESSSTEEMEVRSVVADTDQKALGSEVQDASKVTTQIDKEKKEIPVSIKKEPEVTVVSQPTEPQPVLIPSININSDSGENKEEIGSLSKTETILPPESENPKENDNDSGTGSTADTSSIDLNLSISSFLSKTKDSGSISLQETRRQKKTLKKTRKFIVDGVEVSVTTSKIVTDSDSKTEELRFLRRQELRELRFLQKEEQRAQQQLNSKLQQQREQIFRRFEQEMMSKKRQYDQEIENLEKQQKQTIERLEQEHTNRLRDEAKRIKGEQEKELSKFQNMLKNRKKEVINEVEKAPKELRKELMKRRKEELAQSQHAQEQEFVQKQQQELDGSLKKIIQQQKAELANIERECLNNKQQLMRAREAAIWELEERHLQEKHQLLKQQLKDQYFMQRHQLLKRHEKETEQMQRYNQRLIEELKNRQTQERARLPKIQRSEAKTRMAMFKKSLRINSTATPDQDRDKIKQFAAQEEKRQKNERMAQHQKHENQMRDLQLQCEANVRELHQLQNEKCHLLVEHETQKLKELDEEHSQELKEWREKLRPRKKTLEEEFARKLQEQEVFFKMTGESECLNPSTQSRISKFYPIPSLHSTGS
UniProt Q8WUX1, whole entry, looked up: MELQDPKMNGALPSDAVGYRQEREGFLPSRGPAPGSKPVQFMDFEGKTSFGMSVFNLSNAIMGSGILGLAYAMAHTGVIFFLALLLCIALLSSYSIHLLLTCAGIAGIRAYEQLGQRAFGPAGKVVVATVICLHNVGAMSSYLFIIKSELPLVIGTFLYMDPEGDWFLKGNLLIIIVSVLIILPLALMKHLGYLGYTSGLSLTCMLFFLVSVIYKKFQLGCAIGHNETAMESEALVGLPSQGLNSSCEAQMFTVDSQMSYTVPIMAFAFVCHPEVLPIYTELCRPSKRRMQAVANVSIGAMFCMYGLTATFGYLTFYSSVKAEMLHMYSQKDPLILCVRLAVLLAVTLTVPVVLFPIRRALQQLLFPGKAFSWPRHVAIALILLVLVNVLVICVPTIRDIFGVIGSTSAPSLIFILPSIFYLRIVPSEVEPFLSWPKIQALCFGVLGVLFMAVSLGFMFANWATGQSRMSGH
UniProt Q6P1M0: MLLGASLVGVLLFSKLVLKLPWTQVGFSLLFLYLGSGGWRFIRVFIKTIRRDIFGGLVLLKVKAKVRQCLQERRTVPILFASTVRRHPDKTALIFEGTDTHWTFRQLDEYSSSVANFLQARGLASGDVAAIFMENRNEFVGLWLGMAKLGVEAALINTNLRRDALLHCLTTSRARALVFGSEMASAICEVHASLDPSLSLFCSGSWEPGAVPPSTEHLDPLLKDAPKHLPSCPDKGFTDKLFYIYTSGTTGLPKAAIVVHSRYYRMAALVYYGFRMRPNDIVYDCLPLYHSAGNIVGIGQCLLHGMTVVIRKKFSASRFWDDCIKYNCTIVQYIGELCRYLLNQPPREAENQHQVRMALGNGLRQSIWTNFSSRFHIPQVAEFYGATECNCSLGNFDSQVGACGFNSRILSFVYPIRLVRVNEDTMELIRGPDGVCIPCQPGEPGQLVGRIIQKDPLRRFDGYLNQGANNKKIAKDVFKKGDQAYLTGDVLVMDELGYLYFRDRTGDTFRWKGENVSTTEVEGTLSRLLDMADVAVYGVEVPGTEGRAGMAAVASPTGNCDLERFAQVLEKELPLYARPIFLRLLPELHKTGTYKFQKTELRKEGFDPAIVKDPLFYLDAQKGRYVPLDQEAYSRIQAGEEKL
UniProt Q9HC21: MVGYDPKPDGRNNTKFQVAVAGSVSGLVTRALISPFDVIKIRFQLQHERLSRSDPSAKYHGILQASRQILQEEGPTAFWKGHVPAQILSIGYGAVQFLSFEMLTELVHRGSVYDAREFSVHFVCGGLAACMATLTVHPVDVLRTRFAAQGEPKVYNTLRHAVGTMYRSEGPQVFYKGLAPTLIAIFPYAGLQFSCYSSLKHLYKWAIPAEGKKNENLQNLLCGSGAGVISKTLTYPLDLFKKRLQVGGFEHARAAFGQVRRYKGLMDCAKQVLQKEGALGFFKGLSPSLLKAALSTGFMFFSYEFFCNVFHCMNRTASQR
UniProt O75746: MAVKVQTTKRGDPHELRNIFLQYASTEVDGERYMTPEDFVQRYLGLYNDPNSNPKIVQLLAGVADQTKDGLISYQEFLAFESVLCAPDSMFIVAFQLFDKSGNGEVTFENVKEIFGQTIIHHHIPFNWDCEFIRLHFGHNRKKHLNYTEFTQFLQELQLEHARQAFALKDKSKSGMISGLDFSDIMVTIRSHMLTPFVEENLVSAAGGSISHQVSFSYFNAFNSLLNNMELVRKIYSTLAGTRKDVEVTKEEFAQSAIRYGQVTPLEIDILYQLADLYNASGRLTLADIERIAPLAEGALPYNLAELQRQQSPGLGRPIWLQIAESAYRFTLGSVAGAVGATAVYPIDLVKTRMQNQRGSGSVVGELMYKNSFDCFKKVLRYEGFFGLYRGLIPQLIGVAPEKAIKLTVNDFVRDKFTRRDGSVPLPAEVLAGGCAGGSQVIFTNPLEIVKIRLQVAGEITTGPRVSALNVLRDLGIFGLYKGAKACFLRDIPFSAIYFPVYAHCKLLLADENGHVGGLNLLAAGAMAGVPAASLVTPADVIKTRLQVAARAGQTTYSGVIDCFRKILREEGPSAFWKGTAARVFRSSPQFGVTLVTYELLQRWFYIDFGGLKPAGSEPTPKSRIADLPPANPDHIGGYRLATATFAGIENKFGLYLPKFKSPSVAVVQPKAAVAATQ
UniProt P48067: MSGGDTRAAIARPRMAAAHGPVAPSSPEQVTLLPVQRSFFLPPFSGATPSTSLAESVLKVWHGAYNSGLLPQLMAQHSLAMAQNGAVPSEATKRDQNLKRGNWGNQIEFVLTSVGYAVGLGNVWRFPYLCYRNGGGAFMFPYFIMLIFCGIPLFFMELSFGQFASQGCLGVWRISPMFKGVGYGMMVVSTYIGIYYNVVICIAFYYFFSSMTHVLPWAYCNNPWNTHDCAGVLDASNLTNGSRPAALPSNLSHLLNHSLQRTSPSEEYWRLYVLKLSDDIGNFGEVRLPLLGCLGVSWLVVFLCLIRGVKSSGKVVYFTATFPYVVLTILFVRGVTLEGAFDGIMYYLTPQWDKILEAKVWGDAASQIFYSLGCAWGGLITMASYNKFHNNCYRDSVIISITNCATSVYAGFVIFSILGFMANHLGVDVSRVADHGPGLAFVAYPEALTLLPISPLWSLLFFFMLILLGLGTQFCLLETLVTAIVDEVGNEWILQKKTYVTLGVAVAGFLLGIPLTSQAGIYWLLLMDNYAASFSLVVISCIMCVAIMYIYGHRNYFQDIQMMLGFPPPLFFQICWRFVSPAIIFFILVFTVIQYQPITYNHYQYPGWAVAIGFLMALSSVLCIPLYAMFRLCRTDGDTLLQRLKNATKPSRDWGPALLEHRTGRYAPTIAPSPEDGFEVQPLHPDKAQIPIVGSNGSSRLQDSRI
UniProt Q9BRY0: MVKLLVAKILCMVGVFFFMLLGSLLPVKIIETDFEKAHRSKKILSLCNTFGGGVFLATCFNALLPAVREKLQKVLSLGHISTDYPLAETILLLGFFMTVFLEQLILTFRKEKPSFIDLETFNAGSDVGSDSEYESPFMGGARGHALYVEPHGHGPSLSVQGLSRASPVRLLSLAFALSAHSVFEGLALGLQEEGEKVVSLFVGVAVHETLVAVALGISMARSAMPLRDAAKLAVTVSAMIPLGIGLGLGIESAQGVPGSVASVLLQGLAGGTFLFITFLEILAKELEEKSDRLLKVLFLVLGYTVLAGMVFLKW

Tests used:
Assay in all cases: log2 fold change, soluble protein after heating vs DMSO (PISA); higher = thermal stabilisation; K562 lysate, 10 uM; active = over 0.2 and 3.5 SD of the protein, either way, in both replicates (recomputed)
[1] = compound: CS(=O)(=O)CCNCc1ccc(-c2ccc3ncnc(Nc4ccc(OCc5cccc(F)c5)c(Cl)c4)c3c2)o1 [lapatinib]
Outline: (§1)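 A 30 min treatment with 10 μM compound was applied to crude K562 extract at 1 mg/mL protein in PBS pH 7.4 with 1 mM MgCl2. Heating for 3 min spanned 48°C-58°C, after which aliquots were pooled, adjusted to 0.5% NP-40 at 4°C and spun at 21,000xg for 90 min. TMTpro 16plex LC-MS/MS of the supernatant, with channel sums equalised, gave values recorded as log-two fold change in thermal stability against solvent controls, from duplicates.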

[2] = compound: CS(=O)(=O)N1CCN(Cc2cc3nc(-c4cccc5[nH]ncc45)nc(N4CCOCC4)c3s2)CC1 [pictilisib]
Outline: as §1

[3] = compound: C[C@@H](Oc1cc(-c2cnn(C3CCNCC3)c2)cnc1N)c1c(Cl)ccc(F)c1Cl [crizotinib]
Outline: as §1

[4] = compound: C[C@H](C1=CC=C(C=C1)C(=O)NC2=C3C=CNC3=NC=C2)N
Outline: as §1

[5] = compound: C[C@H](Nc1ncnc2nc[nH]c12)c1cc2cccc(Cl)c2c(=O)n1-c1ccccc1 [duvelisib]
Outline: as §1

[6] = compound: Cc1cc(Nc2cc(CN3CCOCC3)c3nc(C)c(Cc4ccc(Cl)cc4F)n3n2)n[nH]1 [gandotinib]
Outline: as §1

[7] = compound: Cc1cc(Nc2cc(N3CCN(C)CC3)nc(Sc3ccc(NC(=O)C4CC4)cc3)n2)n[nH]1 [tozasertib]
Outline: as §1

[8] = compound: Cc1ccc(-n2nc(C(C)(C)C)cc2NC(=O)Nc2ccc(OCCN3CCOCC3)c3ccccc23)cc1 [doramapimod]
Outline: as §1

[9] = compound: Cc1ccc(NC(=O)c2ccc(CN3CC[C@H](N(C)C)C3)c(C(F)(F)F)c2)cc1Nc1nccc(-c2cncnc2)n1 [bafetinib]
Outline: as §1

[10] = compound: Cc1cccc(CC(=O)N2CCc3c2ccc(-c2cn(C)c4ncnc(N)c24)c3F)n1
Outline: as §1

[11] = compound: Cc1cn(-c2cc(NC(=O)c3ccc(C)c(Nc4nccc(-c5cccnc5)n4)c3)cc(C(F)(F)F)c2)cn1 [nilotinib]
Outline: as §1

[12] = compound: Cc1nc(Nc2n[nH]c3c2CN(C(=O)N[C@H](CN(C)C)c2ccccc2)C3(C)C)c2sccc2n1
Outline: as §1

[13] = compound: Cc1nc(Nc2ncc(C(=O)Nc3c(C)cccc3Cl)s2)cc(N2CCN(CCO)CC2)n1 [dasatinib]
Outline: as §1

[14] = compound: Cc1ncc(-c2ccnc(Nc3ccc(S(C)(=O)=O)cc3)n2)n1C(C)C
Outline: as §1

[15] = compound: Cn1cc(-c2ccc3c(c2)CCN3C(=O)Cc2cccc(C(F)(F)F)c2)c2c(N)ncnc21
Outline: as §1

[16] = compound: Cn1cc(CNCC2CCN(c3ncc(C(=O)NO)cn3)CC2)c2ccccc21 [quisinostat]
Outline: as §1

[17] = compound: Cn1cncc1[C@@](N)(c1ccc(Cl)cc1)c1ccc2c(c1)c(-c1cccc(Cl)c1)cc(=O)n2C [tipifarnib]
Outline: as §1

[18] = compound: NC(=O)Nc1cc(-c2cccc(F)c2)sc1C(=O)N[C@H]1CCCNC1
Outline: as §1

[19] = compound: NC(=O)c1cnc(N[C@@H]2CCCC[C@@H]2N)nc1Nc1cccc(-n2nccn2)c1
Outline: as §1

[20] = compound: NC1(c2ccc(-c3nc4ccn5c(=O)[nH]nc5c4cc3-c3ccccc3)cc2)CCC1
Outline: as §1

Measured: log2 fold change

SLC35A2 isoform 4 (UniProt P78381)
inactive: [1] 0.062 | [2] 0.02 | [3] 0.002 | [4] 0.086 | [5] -0.031 | [6] -0.074 | [7] -0.015 | [8] -0.023 | [9] 0.121 | [10] -0.046 | [11] -0.028 | [12] -0.015 | [13] 0.038 | [14] -0.035 | [15] 0 | [16] -0.097 | [17] 0.088 | [18] 0.03 | [19] -0.03 | [20] -0.021

SMARCA2 (UniProt P51531)
inactive: [1] -0.01 | [2] -0.031 | [3] -0.022 | [4] 0.101 | [5] -0.024 | [6] -0.039 | [7] -0.003 | [8] -0.033 | [9] -0.044 | [10] -0.032 | [11] 0.005 | [12] -0.05 | [13] -0.034 | [14] 0.047 | [15] 0.037 | [16] -0.004 | [17] -0.048 | [18] 0.018 | [19] 0.023 | [20] 0.02

SLC35B2 (UniProt Q8TB61)
inactive: [1] -0.011 | [2] -0.003 | [3] 0.033 | [4] -0.063 | [5] 0.008 | [6] 0.044 | [7] -0.007 | [8] -0.019 | [9] 0.04 | [10] 0.029 | [11] 0.011 | [12] 0.038 | [13] 0.032 | [14] -0.037 | [15] -0.005 | [16] 0.052 | [17] -0.085 | [18] -0.011 | [19] 0.013 | [20] 0

SLC37A4 isoform 2 (UniProt O43826)
inactive: [1] 0 | [2] -0.05 | [3] -0.014 | [4] -0.18 | [5] 0.023 | [6] 0.158 | [7] 0.045 | [8] 0.06 | [9] -0.023 | [10] 0.186 | [11] 0.01 | [12] -0.002 | [13] 0.058 | [14] -0.035 | [15] 0.035 | [16] -0.084 | [17] -0.035 | [18] -0.002 | [19] 0.01 | [20] -0.072

Retrieved one by one from the list above, 2 records:
SLC35A2 isoform 4 (UniProt P78381)
inactive: [1] 0.062 | [2] 0.02 | [3] 0.002 | [4] 0.086 | [5] -0.031 | [6] -0.074 | [7] -0.015 | [8] -0.023 | [9] 0.121 | [10] -0.046 | [11] -0.028 | [12] -0.015 | [13] 0.038 | [14] -0.035 | [15] 0 | [16] -0.097 | [17] 0.088 | [18] 0.03 | [19] -0.03 | [20] -0.021

SMARCA2 (UniProt P51531)
inactive: [1] -0.01 | [2] -0.031 | [3] -0.022 | [4] 0.101 | [5] -0.024 | [6] -0.039 | [7] -0.003 | [8] -0.033 | [9] -0.044 | [10] -0.032 | [11] 0.005 | [12] -0.05 | [13] -0.034 | [14] 0.047 | [15] 0.037 | [16] -0.004 | [17] -0.048 | [18] 0.018 | [19] 0.023 | [20] 0.02

More records:

SLC25A24 (UniProt Q6NUK1)
inactive: [1] -0.032 | [2] -0.049 | [3] 0.039 | [4] 0.006 | [5] -0.025 | [6] -0.01 | [7] 0.018 | [8] -0.018 | [9] 0.04 | [10] -0.011 | [11] 0.002 | [12] -0.018 | [13] 0.017 | [14] -0.015 | [15] 0.008 | [16] 0.006 | [17] -0.007 | [18] -0.017 | [19] -0.001 | [20] 0.02

SLC38A1 (UniProt Q9H2H9)
inactive: [1] -0.008 | [2] -0.01 | [3] -0.064 | [4] -0.218 | [5] 0.048 | [6] 0.096 | [7] 0.026 | [8] -0.009 | [9] 0.003 | [10] 0.095 | [11] -0.001 | [12] 0.007 | [13] 0.001 | [14] -0.002 | [15] -0.041 | [16] -0.123 | [17] -0.032 | [18] -0.015 | [19] 0.001 | [20] -0.024

SLK isoform 2 (UniProt Q9H2G2)
inactive: [1] -0.08 | [2] 0.015 | [3] 0.157 | [4] 0.003 | [5] -0.01 | [6] 0.138 | [7] -0.03 | [8] -0.111 | [9] -0.036 | [10] -0.102 | [11] -0.036 | [12] 0.02 | [13] 0.107 | [14] 0.028 | [15] -0.109 | [16] -0.013 | [17] 0.033 | [18] 0.11 | [19] -0.005 | [20] -0.027

SLC38A5 (UniProt Q8WUX1)
inactive: [1] -0.027 | [2] -0.027 | [3] -0.062 | [4] -0.158 | [5] 0.036 | [6] 0.034 | [7] -0.008 | [8] 0.005 | [9] -0.06 | [10] 0.049 | [11] -0.001 | [12] 0.02 | [13] -0.005 | [14] -0.012 | [15] -0.028 | [16] -0.082 | [17] -0.011 | [18] 0.014 | [19] -0.002 | [20] 0.005

SLC27A4 (UniProt Q6P1M0)
inactive: [1] -0.052 | [2] -0.005 | [3] -0.049 | [4] -0.04 | [5] 0.037 | [6] 0.095 | [7] -0.045 | [8] 0.149 | [9] -0.057 | [10] 0.052 | [11] -0.061 | [12] 0.002 | [13] 0.026 | [14] -0.036 | [15] 0.048 | [16] -0.123 | [17] 0.096 | [18] 0.036 | [19] -0.023 | [20] 0.036

SLC25A20 (UniProt O43772)
inactive: [1] -0.016 | [2] -0.034 | [3] 0.03 | [4] -0.091 | [5] -0.022 | [6] 0.022 | [7] -0.005 | [8] 0.024 | [9] 0.005 | [10] 0.046 | [11] 0.018 | [12] 0.004 | [13] 0.036 | [14] 0.026 | [15] 0.053 | [16] -0.055 | [17] -0.025 | [18] -0.015 | [19] -0.029 | [20] 0.005

SLC25A19 (UniProt Q9HC21)
inactive: [1] 0.024 | [2] 0.017 | [3] 0.014 | [4] 0.009 | [5] -0.016 | [6] -0.005 | [7] 0.004 | [8] -0.012 | [9] -0.005 | [10] 0.044 | [11] -0.007 | [12] 0 | [13] 0.057 | [14] 0.037 | [15] 0.026 | [16] 0.044 | [17] 0.007 | [18] -0.008 | [19] -0.009 | [20] 0.027

SLC25A12 (UniProt O75746)
inactive: [1] 0 | [2] 0.015 | [3] 0.042 | [4] -0.027 | [5] -0.005 | [6] 0.005 | [7] -0.028 | [8] -0.068 | [9] -0.038 | [10] 0.021 | [11] 0.002 | [12] -0.004 | [13] 0.037 | [14] 0.012 | [15] -0.003 | [16] 0.101 | [17] 0.014 | [18] 0.005 | [19] -0.011 | [20] 0.006

SLC6A9 isoform 2 (UniProt P48067)
inactive: [1] -0.066 | [2] -0.02 | [3] -0.024 | [4] -0.057 | [5] 0.026 | [6] 0.026 | [7] 0.108 | [8] -0.038 | [9] -0.002 | [10] 0.042 | [11] -0.033 | [12] -0.002 | [13] 0.105 | [14] -0.002 | [15] -0.052 | [16] -0.041 | [17] 0.102 | [18] 0.049 | [19] -0.036 | [20] -0.044

SLC39A3 (UniProt Q9BRY0)
inactive: [1] 0.032 | [2] 0.006 | [3] 0 | [4] -0.104 | [5] -0.012 | [6] 0.025 | [7] 0.01 | [8] 0.028 | [9] -0.033 | [10] 0.002 | [11] 0.03 | [12] 0.054 | [13] -0.02 | [14] 0.045 | [15] 0.059 | [16] -0.155 | [17] 0.061 | [18] 0.066 | [19] 0.007 | [20] -0.071

SLC25A10 isoform 2 (UniProt Q9UBX3)
inactive: [1] 0.008 | [2] 0.014 | [3] -0.021 | [4] -0.013 | [5] -0.001 | [6] 0.009 | [7] 0.002 | [8] -0.026 | [9] -0.042 | [10] -0.017 | [11] 0 | [12] 0.006 | [13] -0.024 | [14] -0.017 | [15] -0.028 | [16] -0.003 | [17] -0.013 | [18] 0.046 | [19] -0.02 | [20] -0.027

SLC25A6 (UniProt P12236)
inactive: [1] -0.016 | [2] 0.003 | [3] 0.033 | [4] -0.068 | [5] -0.011 | [6] 0.04 | [7] -0.016 | [8] -0.017 | [9] -0.042 | [10] 0.038 | [11] 0.033 | [12] 0.039 | [13] 0.019 | [14] 0.016 | [15] -0.029 | [16] 0.02 | [17] 0.047 | [18] 0.034 | [19] -0.012 | [20] 0.007
